The other results are listed elsewhere or left out.
Test system: T1, CTL2-GFP (C. trachomatis L2/434/Bu, GFP-expressing)
T1 construct: L2/434/Bu, GFP-expressing
Design: species or system HeLa; Intracellular C. trachomatis growth in HeLa cells, bulk GFP fluorescence relative to DMSO
Conditions: bulk GFP, single well; 28.5 h, 10 µM; inhibitor

SMILES | % of control remaining
Cc1ccc(C(=O)C(C)OC(=O)c2ccc(NC(=O)c3ccccc3)cc2)cc1 (stereo not shown) [CBK264302] | 100%
Cc1n[nH]c(NN)c1Cl [CBK260876C] | 110.829%
O=C(CSc1nnc(-c2ccncc2)[nH]1)c1ccc(O)cc1O [CBK264353] | 123.933%
Cc1nc(=O)c(-c2ccccc2)c(C)n1-c1ccc2cn[nH]c2c1 [CBK288193] | 134.13%
Cn1cc(C(=O)NC2CCN(C(=O)c3cccc(C#N)c3)CC2)cn1 [CBK305673] | 125.537%
NC(=O)CC[n+]1ccc2ccccc2c1 [CBK022857C] | 115.245%
O=C(Nc1ccc2ncccc2c1)c1cccc(F)c1Cl [CBK159800] | 109.661%
O=C(c1ccc(F)cc1)[C@H]1CCCN(C(=O)c2cc(C3CC3)n[nH]2)C1 [CBK282410] | 125.385%
NC1=NNC2=C(c3ccc(Cl)cc3Cl)NNN12 [CBK093660] | 100%
Cc1cc(C)cc(OCc2nnc(SCC(=O)Nc3cc(C(F)(F)F)ccc3Cl)o2)c1 [CBK267890] | 108.116%
COc1ccc(/C=N/c2cc(S(=O)(=O)c3ccc(O)c(/N=C/c4ccc(OC)c(O)c4)c3)ccc2O)cc1O [CBK261223] | 106.22%
Cn1c(=O)oc2cc(NC(=O)CC3CCN(Cc4cccc(C(F)(F)F)c4)CC3)ccc21 [CBK285953] | 134.262%
O=C(CSc1nnc(-c2ccccc2)n1-c1ccccc1)N/N=C/c1coc2ccccc2c1=O [CBK262791] | 103.512%
CCN(Cc1ccncc1)C(=O)Nc1ccc2[nH]ccc2c1 [CBK155136] | 127.949%
CC(C)[C@H](CO)NC(=O)c1cnc(-c2ccc(Cl)cc2)c(-c2ccco2)c1 [CBK036658] | 85.3994%
COc1cccc2c3c([nH]c12)C1(CCN(CCOc2ccccc2)CC1)N(C=O)CC3 [CBK039423] | 65.986%
COc1cc(-c2cnc3[nH]c(=O)n(CCc4ccncc4)c3n2)cc(OC)c1OC [CBK064620] | 112.26%
CC(C)(C)OC(=O)N1CCC(N(CCC(F)(F)F)Cc2ccc(-c3ccc(S(C)(=O)=O)cc3)nc2)CC1 [CBK167262] | 120.597%
Cc1ccccc1CSCC(=O)Nc1ccc(S(=O)(=O)N2CCCCC2)cc1 [CBK264006] | 51.0049%
CC(=O)N1CCc2sccc2C1c1ccccc1NC(=O)C1CC1 (stereo not shown) [CBK282903] | 91.9838%

In the list so far, 3 have an aryl methoxy group.
SMILES | % of control remaining
COc1ccc(/C=N/c2cc(S(=O)(=O)c3ccc(O)c(/N=C/c4ccc(OC)c(O)c4)c3)ccc2O)cc1O [CBK261223] | 106.22%
COc1cccc2c3c([nH]c12)C1(CCN(CCOc2ccccc2)CC1)N(C=O)CC3 [CBK039423] | 65.986%
COc1cc(-c2cnc3[nH]c(=O)n(CCc4ccncc4)c3n2)cc(OC)c1OC [CBK064620] | 112.26%

Following part

SMILES | % of control remaining
O=C(O)c1ccc(CN2C[C@H](O)C[C@H]2c2nc(-c3ccccn3)no2)cc1 [CBK288869] | 123.825%
C=CCC1(CC=C)CCN1C(=O)c1cc(-c2ccccn2)n[nH]1 [CBK282448] | 110.788%
CSc1nnc2c(n1)[nH]c1ccccc12 [CBK025967] | 89.5023%
COc1ccc(Nc2nc(-c3cc(C(C)C)ccc3OC)cnc2N)c(C)c1 [CBK064098] | 160.868%
COc1cccc(C(=O)NCCC(=O)N2CCc3sccc3C2)c1 [CBK305376] | 96.4328%
OCc1ccccc1-c1nccnc1NCc1ccco1 [CBK037098] | 134.593%
Cc1sc2c(C3CCN(C(=O)C4CC4)CC3)nc(C)n2c1C [CBK285298] | 124.641%
O=C1CCc2c(Cc3c(Cl)cccc3Cl)c(O)nn21 [CBK083470] | 110.72%
CCN(CC)CCNc1c(N)c(=O)oc2ccccc12 [CBK261469] | 100%
COc1ccc(-c2c[nH]c([C@@H]3COCCN3Cc3ccc(C(=O)O)cc3)n2)cc1 [CBK289305] | 154.063%
COc1ccccc1NC(=O)C(c1ccccc1)N1CCOCC1 (stereo not shown) [CBK269561] | 94.711%
Cn1c(=O)c(C(=O)Nc2ccc(OCc3ccccc3F)cc2)nc2ccccc21 [CBK285820] | 104.708%
O=C(Nc1ccc(=O)n2c1[C@@H]1C[C@@H](CN(C(=O)COc3ccccc3)C1)C2)c1cncnc1 [CBK288712] | 122.576%
O=C(O)CC(C(=O)OC1CCCCC1)N1CCOCC1 (stereo not shown) [CBK265970] | 190.557%
O=C(NCCn1nc2c(cc1=O)CCCCC2)c1ccccc1 [CBK283278] | 130.678%
COc1ccc(-n2ncc3c2CC(C)(C)CC3NS(C)(=O)=O)cc1 (stereo not shown) [CBK306759] | 128.682%
CCOc1ncccc1C(=O)OCc1cc2ccc(OC)cc2nc1Cl [CBK295289] | 150.767%
O=C(O)c1ccc(CN2C[C@H](O)C[C@H]2c2nc(-c3ccc(F)cc3)no2)cc1 [CBK288870] | 102.167%
O=C(NC1CC1)N1CCN(CCCOc2ccc(F)cc2)CC1 [CBK025077C] | 104.983%
N#CCCCN1CCC(Oc2nccnc2OCc2cccc(Br)c2)CC1 [CBK153631] | 126.674%

Source: paper PMC12040169 (PLOS Biology, 2025)
